PubChem BioAssay AID1224828 | NIAID, 2016
Test: 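Find genes required for NF-kappaB p65 moving into the nucleus after LPS in mouse macrophages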 (primary screen). System: mouse RAW264.7 G9 macrophage reporter cells (GFP-p65, Tnf promoter-mCherry). Reagent: siRNA pool against mouse genes, 100 nM. Duration: 2 days siRNA transfection, then 40 min LPS before fixation. Challenge: LPS (Salmonella minnesota R595) at 10 ng/ml. Measurement: 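Imaged p65 nuclear translocation ratio, normalised to the plate median, converted to robust z-scores and averaged across two replicates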. Direction: p65 translocation robust z-score: higher = more nuclear NF-kappaB p65 after LPS than the plate median; nuclear/cytoplasmic p65 ratio: higher = more nuclear NF-kappaB p65. Rule for the call: 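Called active when z exceeds 3.3 or falls under -1.56 (median of Tlr4 controls), giving activity score of at least 50; no calls for control wells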. Calls: active = hit (p65 shift raised or lowered); inactive = no clear change.
Shown is one part, drawn at random, of about 17,000 reagents tested. 762 of them (4.5%) count as active. 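Active calls include both raised and lowered p65 entry, mostly lowered; wells with fewer than 50 cells lack a z-score.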 Raw values vary from plate to plate and are shown uncorrected.

How did the screen score Trappc13 (trafficking protein particle complex 13)?
nuclear/cytoplasmic p65 ratio, rep 1: 1.2; nuclear/cytoplasmic p65 ratio, rep 2: 1.43; low cell count flag: fewer than 50 cells per well; well left out of scoring; activity call: inactive

Which result is listed for Ctse (cathepsin E)?
p65 translocation robust z-score: 1.07; nuclear/cytoplasmic p65 ratio, rep 1: 1.71; nuclear/cytoplasmic p65 ratio, rep 2: 1.44; low cell count flag: enough cells to score; activity call: inactive

What is on record for Ppp2r2c (protein phosphatase 2, regulatory subunit B, gamma)?
p65 translocation robust z-score: -0.34; nuclear/cytoplasmic p65 ratio, rep 1: 1.56; nuclear/cytoplasmic p65 ratio, rep 2: 1.56; low cell count flag: enough cells to score; activity call: inactive

What is on record for Or8b1d (olfactory receptor family 8 subfamily B member 1D)?
nuclear/cytoplasmic p65 ratio, rep 1: 1.32; nuclear/cytoplasmic p65 ratio, rep 2: 1.02; low cell count flag: fewer than 50 cells per well; well left out of scoring; activity call: inactive

What did the screen give for Or8b55 (olfactory receptor family 8 subfamily B member 55)?
p65 translocation robust z-score: -0.16; nuclear/cytoplasmic p65 ratio, rep 1: 1.45; nuclear/cytoplasmic p65 ratio, rep 2: 1.2; low cell count flag: enough cells to score; activity call: inactive

With Misp (mitotic spindle positioning), how do the results read?
p65 translocation robust z-score: -0.98; nuclear/cytoplasmic p65 ratio, rep 1: 1.28; nuclear/cytoplasmic p65 ratio, rep 2: 1.42; low cell count flag: enough cells to score; activity call: inactive

With Chi3l1 (chitinase 3 like 1), how do the results read?
p65 translocation robust z-score: -0.1; nuclear/cytoplasmic p65 ratio, rep 1: 1.55; nuclear/cytoplasmic p65 ratio, rep 2: 1.8; low cell count flag: enough cells to score; activity call: inactive

With Ces2e (carboxylesterase 2E), what was measured?
p65 translocation robust z-score: -2.52; nuclear/cytoplasmic p65 ratio, rep 1: 1.1; nuclear/cytoplasmic p65 ratio, rep 2: 1.17; low cell count flag: enough cells to score; activity call: active

Which result is listed for Klhl20 (kelch-like 20)?
p65 translocation robust z-score: -0.66; nuclear/cytoplasmic p65 ratio, rep 1: 1.45; nuclear/cytoplasmic p65 ratio, rep 2: 1.38; low cell count flag: enough cells to score; activity call: inactive

Which result is listed for Fbh1 (F-box DNA helicase 1)?
p65 translocation robust z-score: 1.18; nuclear/cytoplasmic p65 ratio, rep 1: 1.78; nuclear/cytoplasmic p65 ratio, rep 2: 1.61; low cell count flag: enough cells to score; activity call: inactive

Which result is listed for Krt10 (keratin 10)?
p65 translocation robust z-score: 0.09; nuclear/cytoplasmic p65 ratio, rep 1: 1.47; nuclear/cytoplasmic p65 ratio, rep 2: 1.41; low cell count flag: enough cells to score; activity call: inactive

With F830004M19Rik (RIKEN cDNA F830004M19 gene), how do the results read?
p65 translocation robust z-score: 0.46; nuclear/cytoplasmic p65 ratio, rep 1: 1.49; nuclear/cytoplasmic p65 ratio, rep 2: 1.54; low cell count flag: enough cells to score; activity call: inactive

Entries above whose target name starts with O or o (2):
Or8b1d (olfactory receptor family 8 subfamily B member 1D) | nuclear/cytoplasmic p65 ratio, rep 1: 1.32; nuclear/cytoplasmic p65 ratio, rep 2: 1.02; low cell count flag: fewer than 50 cells per well; well left out of scoring; activity call: inactive
Or8b55 (olfactory receptor family 8 subfamily B member 55) | p65 translocation robust z-score: -0.16; nuclear/cytoplasmic p65 ratio, rep 1: 1.45; nuclear/cytoplasmic p65 ratio, rep 2: 1.2; low cell count flag: enough cells to score; activity call: inactive
